Test results published in doi:10.1101/2020.10.12.331975.
Where two headings read alike, the source gives them in different places. Results are given in words; binding and its absence hold for the method and conditions named. Binding seen in cells or lysates may run through a third protein. Some results given as binding are weak or reduced against the parent protein; the word gives no strength. For some of these results: Sequences can lack the tags named with a protein.

Protein sequences, listed by entry. Tags and fused reporters are not part of them. Lines headed by an entry give the natural chain unless they say otherwise; changes in a name come on top.
UniProt P51532: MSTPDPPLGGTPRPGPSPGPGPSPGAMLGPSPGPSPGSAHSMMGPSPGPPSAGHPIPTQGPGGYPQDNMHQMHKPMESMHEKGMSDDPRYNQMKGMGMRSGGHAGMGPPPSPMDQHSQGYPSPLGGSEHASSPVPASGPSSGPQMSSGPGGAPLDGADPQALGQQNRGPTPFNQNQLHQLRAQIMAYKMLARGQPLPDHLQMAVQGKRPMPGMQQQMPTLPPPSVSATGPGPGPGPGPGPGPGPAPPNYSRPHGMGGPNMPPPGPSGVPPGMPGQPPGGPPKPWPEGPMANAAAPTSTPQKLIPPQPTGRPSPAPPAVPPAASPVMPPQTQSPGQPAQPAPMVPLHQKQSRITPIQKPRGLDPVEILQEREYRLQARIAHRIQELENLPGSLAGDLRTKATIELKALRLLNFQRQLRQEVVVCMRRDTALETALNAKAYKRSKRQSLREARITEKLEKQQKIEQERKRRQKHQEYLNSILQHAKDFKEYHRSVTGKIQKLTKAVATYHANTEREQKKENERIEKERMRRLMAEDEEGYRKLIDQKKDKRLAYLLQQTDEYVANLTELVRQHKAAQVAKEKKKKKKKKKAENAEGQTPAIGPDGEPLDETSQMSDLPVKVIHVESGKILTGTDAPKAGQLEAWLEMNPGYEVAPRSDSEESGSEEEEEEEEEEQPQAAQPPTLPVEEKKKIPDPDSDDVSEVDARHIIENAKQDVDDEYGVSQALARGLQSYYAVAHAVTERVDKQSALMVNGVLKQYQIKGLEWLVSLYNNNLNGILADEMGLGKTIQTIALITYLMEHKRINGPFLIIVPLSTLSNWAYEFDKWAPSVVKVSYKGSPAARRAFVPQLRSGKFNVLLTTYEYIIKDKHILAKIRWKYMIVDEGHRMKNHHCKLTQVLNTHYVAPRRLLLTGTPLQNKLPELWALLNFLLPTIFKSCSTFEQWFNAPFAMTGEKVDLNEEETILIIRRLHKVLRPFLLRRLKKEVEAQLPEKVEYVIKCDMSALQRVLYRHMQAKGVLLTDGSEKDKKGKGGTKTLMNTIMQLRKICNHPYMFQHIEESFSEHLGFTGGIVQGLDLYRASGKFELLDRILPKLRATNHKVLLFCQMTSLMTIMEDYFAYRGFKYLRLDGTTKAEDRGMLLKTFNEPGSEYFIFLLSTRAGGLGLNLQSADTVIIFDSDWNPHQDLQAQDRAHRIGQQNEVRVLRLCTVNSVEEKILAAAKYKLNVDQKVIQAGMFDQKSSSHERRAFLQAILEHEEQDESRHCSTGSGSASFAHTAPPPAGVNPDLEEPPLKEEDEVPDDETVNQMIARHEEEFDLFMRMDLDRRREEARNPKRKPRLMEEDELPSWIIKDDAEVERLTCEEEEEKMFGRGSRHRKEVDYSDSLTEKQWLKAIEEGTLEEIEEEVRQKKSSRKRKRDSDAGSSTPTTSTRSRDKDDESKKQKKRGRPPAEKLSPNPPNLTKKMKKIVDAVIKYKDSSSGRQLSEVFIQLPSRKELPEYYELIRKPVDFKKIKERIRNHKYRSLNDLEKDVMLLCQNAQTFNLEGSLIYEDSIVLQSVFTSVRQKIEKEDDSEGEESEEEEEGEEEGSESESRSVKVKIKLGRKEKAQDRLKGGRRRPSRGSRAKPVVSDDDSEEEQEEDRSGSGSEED
UniProt O14497: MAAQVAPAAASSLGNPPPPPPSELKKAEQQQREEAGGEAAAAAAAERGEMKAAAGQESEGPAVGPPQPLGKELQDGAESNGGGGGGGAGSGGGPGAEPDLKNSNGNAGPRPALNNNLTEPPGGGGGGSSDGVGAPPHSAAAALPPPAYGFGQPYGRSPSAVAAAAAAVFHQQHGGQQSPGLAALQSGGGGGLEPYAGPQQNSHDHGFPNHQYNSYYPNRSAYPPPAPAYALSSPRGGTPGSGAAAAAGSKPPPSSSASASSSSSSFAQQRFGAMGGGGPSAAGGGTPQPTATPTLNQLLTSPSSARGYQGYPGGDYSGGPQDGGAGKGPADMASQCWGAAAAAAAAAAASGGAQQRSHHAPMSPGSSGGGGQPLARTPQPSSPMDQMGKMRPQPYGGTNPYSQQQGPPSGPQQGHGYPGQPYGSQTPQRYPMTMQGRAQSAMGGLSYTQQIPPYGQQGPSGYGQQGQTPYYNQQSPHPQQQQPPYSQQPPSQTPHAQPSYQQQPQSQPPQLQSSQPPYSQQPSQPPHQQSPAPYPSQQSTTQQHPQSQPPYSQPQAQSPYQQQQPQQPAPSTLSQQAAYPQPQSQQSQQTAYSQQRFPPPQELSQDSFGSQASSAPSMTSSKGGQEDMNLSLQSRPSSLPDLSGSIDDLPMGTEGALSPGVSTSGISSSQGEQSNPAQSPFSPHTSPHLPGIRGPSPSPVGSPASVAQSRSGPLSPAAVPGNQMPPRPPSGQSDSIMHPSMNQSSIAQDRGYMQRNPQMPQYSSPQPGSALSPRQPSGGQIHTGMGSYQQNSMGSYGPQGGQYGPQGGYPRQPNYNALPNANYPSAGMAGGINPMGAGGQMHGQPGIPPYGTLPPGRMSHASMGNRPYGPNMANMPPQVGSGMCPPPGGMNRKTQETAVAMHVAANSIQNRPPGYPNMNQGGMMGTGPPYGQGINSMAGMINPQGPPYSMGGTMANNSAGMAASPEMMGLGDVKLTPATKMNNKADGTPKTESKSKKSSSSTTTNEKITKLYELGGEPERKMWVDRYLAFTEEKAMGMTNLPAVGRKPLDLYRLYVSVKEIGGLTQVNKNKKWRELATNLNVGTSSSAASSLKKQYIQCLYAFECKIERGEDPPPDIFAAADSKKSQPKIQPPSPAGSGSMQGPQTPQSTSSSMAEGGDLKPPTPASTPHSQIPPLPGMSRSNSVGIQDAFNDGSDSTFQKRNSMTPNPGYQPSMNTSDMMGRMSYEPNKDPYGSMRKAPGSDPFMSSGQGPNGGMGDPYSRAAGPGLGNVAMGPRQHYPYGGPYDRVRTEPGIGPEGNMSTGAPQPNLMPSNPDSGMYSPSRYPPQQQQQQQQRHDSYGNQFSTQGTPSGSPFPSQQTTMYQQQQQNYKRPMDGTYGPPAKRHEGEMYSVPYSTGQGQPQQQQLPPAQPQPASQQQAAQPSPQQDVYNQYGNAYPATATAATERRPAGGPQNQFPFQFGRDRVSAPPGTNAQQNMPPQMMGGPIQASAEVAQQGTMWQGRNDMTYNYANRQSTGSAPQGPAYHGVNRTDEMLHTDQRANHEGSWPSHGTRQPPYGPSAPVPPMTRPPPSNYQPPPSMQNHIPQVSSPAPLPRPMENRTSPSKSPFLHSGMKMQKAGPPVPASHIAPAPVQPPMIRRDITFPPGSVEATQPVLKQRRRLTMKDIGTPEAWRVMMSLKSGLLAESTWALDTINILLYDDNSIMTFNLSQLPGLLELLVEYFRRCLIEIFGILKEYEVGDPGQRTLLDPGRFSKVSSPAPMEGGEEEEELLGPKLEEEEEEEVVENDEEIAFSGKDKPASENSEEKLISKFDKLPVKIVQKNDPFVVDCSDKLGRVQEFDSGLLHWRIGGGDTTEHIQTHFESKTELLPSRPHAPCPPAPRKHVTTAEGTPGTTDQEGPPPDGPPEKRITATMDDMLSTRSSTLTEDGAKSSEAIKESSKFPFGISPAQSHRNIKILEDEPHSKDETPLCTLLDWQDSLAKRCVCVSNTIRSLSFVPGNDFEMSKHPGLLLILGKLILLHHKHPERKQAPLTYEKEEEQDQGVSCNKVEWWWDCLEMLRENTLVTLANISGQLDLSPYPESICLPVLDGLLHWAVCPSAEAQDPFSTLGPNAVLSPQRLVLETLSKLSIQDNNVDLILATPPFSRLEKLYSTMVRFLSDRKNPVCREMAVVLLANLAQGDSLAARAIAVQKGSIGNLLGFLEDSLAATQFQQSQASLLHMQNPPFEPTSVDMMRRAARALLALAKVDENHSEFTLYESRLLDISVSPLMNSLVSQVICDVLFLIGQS

Legend:
[1] = target: SMARCA4 (also known as BRG1), endogenous (human (endogenous in ES2)) (UniProt P51532); assay: co-IP
[2] = target: Carbamoyl-phosphate synthetase 2, Aspartate transcarbamoylase, and Dihydroorotase (CAD), endogenous (human (endogenous in KLE and ES2)) (UniProt P27708); assay: co-IP
[3] = target: SMARCA4 (also known as BRG1), endogenous (human (endogenous in ES2)) (UniProt P51532); assay: co-IP; remark: listed apart in the source
[4] = target: Carbamoyl-phosphate synthetase 2, Aspartate transcarbamoylase, and Dihydroorotase (CAD), endogenous (human (endogenous in KLE and ES2)) (UniProt P27708); assay: co-IP; remark: listed apart in the source
[5] = target: ARID1A protein (BAF250a), endogenous (human (endogenous in KLE and ES2)) (UniProt O14497); assay: co-IP
[6] = target: ARID1A protein (BAF250a), endogenous (human (endogenous in KLE and ES2)) (UniProt O14497); assay: co-IP; remark: listed apart in the source
[7] = target: T1, GST-ATCase domain of CAD (1823-2225) (UniProt P27708); assay: pull-down
T1 sequence: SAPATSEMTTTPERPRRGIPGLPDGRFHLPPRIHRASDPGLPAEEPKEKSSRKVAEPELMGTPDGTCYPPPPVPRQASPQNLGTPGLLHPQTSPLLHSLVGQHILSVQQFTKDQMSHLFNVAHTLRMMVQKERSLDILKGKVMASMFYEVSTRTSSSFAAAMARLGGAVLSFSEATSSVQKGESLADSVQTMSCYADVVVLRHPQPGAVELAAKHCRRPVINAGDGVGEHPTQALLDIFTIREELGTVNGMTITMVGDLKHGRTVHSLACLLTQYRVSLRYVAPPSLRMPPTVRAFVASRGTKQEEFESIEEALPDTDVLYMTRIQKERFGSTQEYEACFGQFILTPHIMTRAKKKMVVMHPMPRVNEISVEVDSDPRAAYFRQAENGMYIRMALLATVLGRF

Substance	binding [5]	binding [6]	binding [7]	other results
ARID1A protein (BAF250a), endogenous (from UniProt O14497-1 1-2285)				binding [1]: binds; binding [2]: binds; binding [3]: binds; binding [4]: binds
Carbamoyl-phosphate synthetase 2, Aspartate transcarbamoylase, and Dihydroorotase (CAD), endogenous (from UniProt P27708 1-2225) (enzyme)	binds	binds		
SMARCA4 (also known as BRG1), endogenous (from UniProt P51532 1-1647)	binds	binds		
V5-tagged C-terminal ARID1A (1759-2285) (from UniProt O14497 1759-2285) (domain or fragment)			binds	
V5-tagged N-terminal ARID1A (1-1758) (from UniProt O14497 1-1758) (domain or fragment)			no binding	
